Results as given in PubChem BioAssay AID330 (DTP/NCI, 2004).
The list shows only some results of the screen, not a fair sample: its compounds were picked by chemical class. Other doses and runs of a compound may be missing. T/C is the treated group as % of the vehicle group. Where survival is the endpoint, this PubChem deposit counts one and a half times the control or more as active, and values a quarter to a half above the control carry no call in these data; other NCI protocols may use other cut-offs. Schedules are NCI's codes, taken here to give the interval after Q, in days (D) or hours (H), and the number of doses after X. Some entries were tested several times; the values are given in rising order. Some entries show no survivor count and are marked so; the dose need not have been tolerated. Additions like (4×) count equal records among those shown. Some schedule codes hold Z or #, which are not explained here.

System: P388 leukemia ip, CD2F1 mice, survival T/C
Assay: NCI In Vivo Anticancer Drug Screen. Data for tumor model P388 Leukemia (intraperitoneal) in CD2F1 (CDF1) mice
Conditions: T/C endpoint: median survival time, higher T/C = longer survival
[1] = dose: 6.25 mg/kg/injection, schedule: Q01DX009 (ip), vehicle: saline with Tween-80
[2] = dose: 12.5 mg/kg/injection, schedule: Q01DX009 (ip), vehicle: saline with Tween-80
[3] = dose: 25.0 mg/kg/injection, schedule: Q01DX009 (ip), vehicle: saline with Tween-80

## COc1ccc(C(=O)O)cc1N(CCCl)CCCl
dose: 1.0 mg/kg/injection, schedule: Q01DX009 (ip), vehicle: Klucel (hydroxypropylcellulose) (HPC)
  T/C: 124 [survivor count not shown] and 133 % of control [survivor count not shown]
dose: 2.0 mg/kg/injection, schedule: Q01DX009 (ip), vehicle: Klucel (hydroxypropylcellulose) (HPC)
  T/C: 147 [survivor count not shown] and 155 % of control [survivor count not shown]
dose: 4.0 mg/kg/injection, schedule: Q01DX009 (ip), vehicle: Klucel (hydroxypropylcellulose) (HPC)
  T/C: 140 [survivor count not shown] and 163 % of control [survivor count not shown]
dose: 8.0 mg/kg/injection, schedule: Q01DX009 (ip), vehicle: Klucel (hydroxypropylcellulose) (HPC)
  T/C: 153 [survivor count not shown] and 200 % of control [survivor count not shown]
dose: 16.0 mg/kg/injection, schedule: Q01DX009 (ip), vehicle: Klucel (hydroxypropylcellulose) (HPC)
  T/C: 213 % of control [survivor count not shown]

## O=P(Cl)(Cl)N(CCCl)CCCl
dose: 3.12 mg/kg/injection, schedule: Q01DX009 (ip), vehicle: saline with Tween-80
  T/C: 106 [survivor count not shown] and 129 % of control [survivor count not shown]
[1]
  T/C: 109 [survivor count not shown] and 151 % of control [survivor count not shown]
[2]
  T/C: 116 [survivor count not shown] and 129 % of control [survivor count not shown]
[3]
  T/C: 129 [survivor count not shown] and 133 % of control [survivor count not shown]

## O=C(O)c1ccc(CN(CCCl)CCCl)cc1
dose: 0.75 mg/kg/injection, schedule: Q01DX009 (ip), vehicle: saline
  T/C: 157 [survivor count not shown] and 163 % of control [survivor count not shown]
dose: 0.75 mg/kg/injection, schedule: Q04DX003 (ip), vehicle: saline
  T/C: 136 % of control [survivor count not shown] (2×)
dose: 1.5 mg/kg/injection, schedule: Q01DX009 (ip), vehicle: saline
  T/C: 189 % of control [survivor count not shown] (2×)
dose: 1.5 mg/kg/injection, schedule: Q04DX003 (ip), vehicle: saline
  T/C: 146 [survivor count not shown] and 159 % of control [survivor count not shown]
dose: 3.0 mg/kg/injection, schedule: Q01DX009 (ip), vehicle: saline
  T/C: 218 % of control [survivor count not shown]
dose: 3.0 mg/kg/injection, schedule: Q04DX003 (ip), vehicle: saline
  T/C: 169 [survivor count not shown] and 180 % of control [survivor count not shown]
dose: 6.0 mg/kg/injection, schedule: Q04DX003 (ip), vehicle: saline
  T/C: 190 % of control [survivor count not shown] (2×)

## ClCCN1[C@@H](CCl)CC[C@@H]1c1ccccc1
dose: 1.56 mg/kg/injection, schedule: Q01DX005 (ip), vehicle: distilled water + alcohol
  T/C: 116 % of control
dose: 3.12 mg/kg/injection, schedule: Q01DX005 (ip), vehicle: distilled water + alcohol
  T/C: 128 and 133 % of control
dose: 6.25 mg/kg/injection, schedule: Q01DX005 (ip), vehicle: distilled water + alcohol
  T/C: 121 and 142 % of control

## COc1ccc(N(CCCl)CCCl)cc1
dose: 6.25 mg/kg/injection, schedule: Q01DX009 (ip), vehicle: Klucel (hydroxypropylcellulose) (HPC)
  T/C: 150 % of control [survivor count not shown]
dose: 12.5 mg/kg/injection, schedule: Q01DX009 (ip), vehicle: Klucel (hydroxypropylcellulose) (HPC)
  T/C: 163 % of control [survivor count not shown]
dose: 25.0 mg/kg/injection, schedule: Q01DX009 (ip), vehicle: Klucel (hydroxypropylcellulose) (HPC)
  T/C: 151 [survivor count not shown] and 204 % of control [survivor count not shown]
dose: 50.0 mg/kg/injection, schedule: Q01DX009 (ip), vehicle: Klucel (hydroxypropylcellulose) (HPC)
  T/C: 94 [survivor count not shown] and 119 % of control [survivor count not shown]

## O=CCCCc1ccc(N(CCCl)CCCl)cc1
dose: 2.25 mg/kg/injection, schedule: Q#A X018 (ip), vehicle: other
  T/C: 95 % of control [survivor count not shown]
dose: 4.5 mg/kg/injection, schedule: Q#A X018 (ip), vehicle: other
  T/C: 190 % of control [survivor count not shown]
dose: 9.0 mg/kg/injection, schedule: Q#A X018 (ip), vehicle: other
  T/C: 190 % of control [survivor count not shown]
dose: 18.0 mg/kg/injection, schedule: Q#A X018 (ip), vehicle: other
  T/C: 154 % of control [survivor count not shown]

## O=C(Cl)c1cccc(N(CCCl)CCCl)c1
[3]
  T/C: 162 % of control [survivor count not shown]
dose: 50.0 mg/kg/injection, schedule: Q01DX009 (ip), vehicle: saline with Tween-80
  T/C: 180 % of control [survivor count not shown] (2×)
dose: 100.0 mg/kg/injection, schedule: Q01DX009 (ip), vehicle: saline with Tween-80
  T/C: 199 [survivor count not shown] and 207 % of control [survivor count not shown]

## O=C(O)C(=O)Cc1ccc(N(CCCl)CCCl)cc1
dose: 0.75 mg/kg/injection, schedule: Q04DX003 (ip), vehicle: saline with Tween-80
  T/C: 104 % of control [survivor count not shown]
dose: 1.5 mg/kg/injection, schedule: Q04DX003 (ip), vehicle: saline with Tween-80
  T/C: 109 % of control [survivor count not shown]
dose: 3.0 mg/kg/injection, schedule: Q04DX003 (ip), vehicle: saline with Tween-80
  T/C: 127 % of control [survivor count not shown]
dose: 6.25 mg/kg/injection, schedule: Q04DX003 (ip), vehicle: saline with Tween-80
  T/C: 160 % of control [survivor count not shown]
dose: 12.5 mg/kg/injection, schedule: Q01DX009 (ip), vehicle: saline + alcohol
  T/C: 177 % of control [survivor count not shown]
dose: 12.5 mg/kg/injection, schedule: Q04DX003 (ip), vehicle: saline with Tween-80
  T/C: 165 % of control [survivor count not shown]
dose: 25.0 mg/kg/injection, schedule: Q01DX009 (ip), vehicle: saline + alcohol
  T/C: 200 % of control [survivor count not shown]
dose: 25.0 mg/kg/injection, schedule: Q04DX003 (ip), vehicle: saline with Tween-80
  T/C: 175 [survivor count not shown] and 210 % of control [survivor count not shown]
dose: 50.0 mg/kg/injection, schedule: Q01DX009 (ip), vehicle: saline + alcohol
  T/C: 95 % of control [survivor count not shown]
dose: 50.0 mg/kg/injection, schedule: Q04DX003 (ip), vehicle: saline with Tween-80
  T/C: 245 % of control [survivor count not shown]

## Cc1cc(N(CCCl)CCCl)ccc1N=O
dose: 100.0 mg/kg/injection, schedule: Q01DX001 (ip), vehicle: Klucel (hydroxypropylcellulose) (HPC)
  T/C: 157 % of control [survivor count not shown]
dose: 200.0 mg/kg/injection, schedule: Q01DX001 (ip), vehicle: Klucel (hydroxypropylcellulose) (HPC)
  T/C: 151 % of control [survivor count not shown]

## CCC(=O)N(c1ccccc1)C1CCNCC1
dose: 50.0 mg/kg/injection, schedule: Q01DX009 (ip), vehicle: saline
  T/C: 99 % of control [survivor count not shown]
dose: 100.0 mg/kg/injection, schedule: Q01DX009 (ip), vehicle: saline
  T/C: 99 % of control [survivor count not shown]

## O=C(O)CCCCCCCCCCN(CCCl)CCCl
dose: 1.56 mg/kg/injection, schedule: Q04DX003 (ip), vehicle: suspension in saline
  T/C: 107 % of control [survivor count not shown]
dose: 3.13 mg/kg/injection, schedule: Q04DX003 (ip), vehicle: suspension in saline
  T/C: 132 % of control [survivor count not shown]
dose: 6.25 mg/kg/injection, schedule: Q04DX003 (ip), vehicle: saline
  T/C: 134 % of control [survivor count not shown]
dose: 6.25 mg/kg/injection, schedule: Q04DX003 (ip), vehicle: suspension in saline
  T/C: 128 % of control [survivor count not shown]
dose: 12.5 mg/kg/injection, schedule: Q04DX003 (ip), vehicle: saline
  T/C: 168 % of control [survivor count not shown]
dose: 12.5 mg/kg/injection, schedule: Q04DX003 (ip), vehicle: suspension in saline
  T/C: 153 % of control [survivor count not shown]

## CC(C)(C)N=S=NP(=O)(F)F
[1]
  T/C: 107 % of control
[2]
  T/C: 106 % of control
[3]
  T/C: 104 % of control
